Binding data for two substances are collected here from article PMC7280511.

Chains of the proteins cited; added tags and fusions are not shown. Residues count along the entry.
UniProt P35579, residues 842-1921: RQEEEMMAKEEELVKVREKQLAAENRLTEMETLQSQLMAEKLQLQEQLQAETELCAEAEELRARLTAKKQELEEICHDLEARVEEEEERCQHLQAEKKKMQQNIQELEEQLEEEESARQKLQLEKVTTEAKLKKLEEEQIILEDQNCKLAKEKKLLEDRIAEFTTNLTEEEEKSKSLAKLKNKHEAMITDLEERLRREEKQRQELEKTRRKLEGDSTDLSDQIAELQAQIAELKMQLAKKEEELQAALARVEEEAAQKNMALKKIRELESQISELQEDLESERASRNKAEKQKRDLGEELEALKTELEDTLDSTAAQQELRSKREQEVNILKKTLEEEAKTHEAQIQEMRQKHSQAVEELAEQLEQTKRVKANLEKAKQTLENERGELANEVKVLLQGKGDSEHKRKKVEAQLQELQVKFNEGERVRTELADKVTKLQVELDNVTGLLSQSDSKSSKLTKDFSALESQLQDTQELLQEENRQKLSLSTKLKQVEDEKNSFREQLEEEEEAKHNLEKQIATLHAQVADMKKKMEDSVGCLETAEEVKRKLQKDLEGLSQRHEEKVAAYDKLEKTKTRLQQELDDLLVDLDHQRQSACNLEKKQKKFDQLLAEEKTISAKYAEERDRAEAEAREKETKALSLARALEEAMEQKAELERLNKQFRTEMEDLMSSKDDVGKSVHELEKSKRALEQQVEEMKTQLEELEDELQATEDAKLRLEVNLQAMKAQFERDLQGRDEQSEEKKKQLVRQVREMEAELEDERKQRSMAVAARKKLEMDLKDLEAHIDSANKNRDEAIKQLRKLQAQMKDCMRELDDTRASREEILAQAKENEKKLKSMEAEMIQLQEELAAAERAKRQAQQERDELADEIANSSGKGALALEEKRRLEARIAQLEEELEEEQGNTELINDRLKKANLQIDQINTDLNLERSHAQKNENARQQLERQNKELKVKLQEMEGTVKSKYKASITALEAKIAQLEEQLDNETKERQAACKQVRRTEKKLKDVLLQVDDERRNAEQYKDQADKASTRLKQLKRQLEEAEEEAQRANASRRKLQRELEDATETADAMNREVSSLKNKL
UniProt Q62812: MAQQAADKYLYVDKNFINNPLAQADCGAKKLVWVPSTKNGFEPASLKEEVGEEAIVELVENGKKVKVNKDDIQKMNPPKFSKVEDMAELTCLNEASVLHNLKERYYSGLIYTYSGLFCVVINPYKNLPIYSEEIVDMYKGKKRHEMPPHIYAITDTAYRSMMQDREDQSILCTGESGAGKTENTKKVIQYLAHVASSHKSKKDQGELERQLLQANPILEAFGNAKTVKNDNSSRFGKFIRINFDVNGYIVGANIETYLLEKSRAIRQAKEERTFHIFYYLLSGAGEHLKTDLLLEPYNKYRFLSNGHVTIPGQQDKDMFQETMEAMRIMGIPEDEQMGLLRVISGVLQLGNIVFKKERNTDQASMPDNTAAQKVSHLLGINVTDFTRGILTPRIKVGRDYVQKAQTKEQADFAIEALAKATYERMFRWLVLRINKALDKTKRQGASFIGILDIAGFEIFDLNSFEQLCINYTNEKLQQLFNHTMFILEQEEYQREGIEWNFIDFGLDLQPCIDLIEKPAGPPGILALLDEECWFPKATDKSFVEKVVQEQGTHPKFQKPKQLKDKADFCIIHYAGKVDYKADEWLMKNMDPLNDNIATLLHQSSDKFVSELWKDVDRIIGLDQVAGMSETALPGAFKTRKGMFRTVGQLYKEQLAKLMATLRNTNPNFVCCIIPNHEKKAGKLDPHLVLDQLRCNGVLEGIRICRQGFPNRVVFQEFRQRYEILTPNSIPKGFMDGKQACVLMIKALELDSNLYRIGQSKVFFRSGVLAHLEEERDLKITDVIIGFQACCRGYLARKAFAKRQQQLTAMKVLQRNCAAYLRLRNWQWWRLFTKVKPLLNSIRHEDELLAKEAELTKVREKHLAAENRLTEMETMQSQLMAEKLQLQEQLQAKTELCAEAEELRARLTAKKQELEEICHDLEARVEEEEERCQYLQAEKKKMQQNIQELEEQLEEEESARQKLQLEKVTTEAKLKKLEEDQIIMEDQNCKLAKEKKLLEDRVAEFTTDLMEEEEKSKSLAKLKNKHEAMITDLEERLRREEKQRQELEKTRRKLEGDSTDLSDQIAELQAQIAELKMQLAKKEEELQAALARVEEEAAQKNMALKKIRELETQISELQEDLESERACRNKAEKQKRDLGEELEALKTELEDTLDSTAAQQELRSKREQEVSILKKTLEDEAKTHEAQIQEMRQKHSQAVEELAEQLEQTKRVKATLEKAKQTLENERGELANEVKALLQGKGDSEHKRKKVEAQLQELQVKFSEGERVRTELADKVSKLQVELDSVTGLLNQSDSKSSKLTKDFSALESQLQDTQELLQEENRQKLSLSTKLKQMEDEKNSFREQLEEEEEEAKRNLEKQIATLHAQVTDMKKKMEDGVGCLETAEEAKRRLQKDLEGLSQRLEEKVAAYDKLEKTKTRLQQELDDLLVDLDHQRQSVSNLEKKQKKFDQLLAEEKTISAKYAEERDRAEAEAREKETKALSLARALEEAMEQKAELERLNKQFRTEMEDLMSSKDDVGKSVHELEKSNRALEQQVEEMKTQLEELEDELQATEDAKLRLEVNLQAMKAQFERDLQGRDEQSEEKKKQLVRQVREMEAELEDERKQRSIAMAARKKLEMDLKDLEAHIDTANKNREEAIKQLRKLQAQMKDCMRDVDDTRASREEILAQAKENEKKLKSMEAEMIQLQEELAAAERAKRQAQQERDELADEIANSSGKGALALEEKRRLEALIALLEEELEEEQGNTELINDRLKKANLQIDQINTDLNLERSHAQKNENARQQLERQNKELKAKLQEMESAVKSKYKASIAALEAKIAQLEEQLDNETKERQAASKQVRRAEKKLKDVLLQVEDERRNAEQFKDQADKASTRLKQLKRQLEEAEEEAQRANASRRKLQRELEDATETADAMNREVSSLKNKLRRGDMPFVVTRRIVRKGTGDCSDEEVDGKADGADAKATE

For experiment [1], the target named is T1, ATG9A in HEK293T cells (human (endogenous in HEK293T)) (UniProt Q7Z3C6).
T1 sequence: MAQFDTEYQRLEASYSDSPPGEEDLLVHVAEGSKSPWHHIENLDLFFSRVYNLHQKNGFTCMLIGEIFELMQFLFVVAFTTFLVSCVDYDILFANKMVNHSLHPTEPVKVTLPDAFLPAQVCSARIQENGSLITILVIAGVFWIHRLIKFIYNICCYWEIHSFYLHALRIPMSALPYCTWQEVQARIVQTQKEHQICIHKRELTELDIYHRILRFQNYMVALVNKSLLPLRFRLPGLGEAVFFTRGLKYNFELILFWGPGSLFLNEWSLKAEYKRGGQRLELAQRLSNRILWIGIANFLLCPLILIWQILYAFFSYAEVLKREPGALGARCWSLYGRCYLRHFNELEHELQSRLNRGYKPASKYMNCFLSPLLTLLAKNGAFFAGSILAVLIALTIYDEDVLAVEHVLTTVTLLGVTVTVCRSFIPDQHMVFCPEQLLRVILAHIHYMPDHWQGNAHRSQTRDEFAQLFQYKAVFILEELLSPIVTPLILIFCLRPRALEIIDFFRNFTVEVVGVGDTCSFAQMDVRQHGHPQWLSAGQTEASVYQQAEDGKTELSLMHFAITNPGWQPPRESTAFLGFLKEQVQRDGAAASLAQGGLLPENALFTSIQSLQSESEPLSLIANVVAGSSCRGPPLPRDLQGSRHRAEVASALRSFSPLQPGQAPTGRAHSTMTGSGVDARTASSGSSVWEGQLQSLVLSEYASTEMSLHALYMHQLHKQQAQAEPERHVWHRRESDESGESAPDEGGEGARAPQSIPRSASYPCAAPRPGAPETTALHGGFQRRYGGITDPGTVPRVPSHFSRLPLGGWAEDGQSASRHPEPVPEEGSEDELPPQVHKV
Nature of the experiment: co-IP; HEK293T cells transfected with a series of HA-tagged NMMHC IIA fragment plasmids; western blot.

For experiment [2], the target named is T2, autophagy-related gene 9A (ATG9A), endogenous in PC12 cells (rat (endogenous in PC12)) (UniProt Q5FWU3).
T2 sequence: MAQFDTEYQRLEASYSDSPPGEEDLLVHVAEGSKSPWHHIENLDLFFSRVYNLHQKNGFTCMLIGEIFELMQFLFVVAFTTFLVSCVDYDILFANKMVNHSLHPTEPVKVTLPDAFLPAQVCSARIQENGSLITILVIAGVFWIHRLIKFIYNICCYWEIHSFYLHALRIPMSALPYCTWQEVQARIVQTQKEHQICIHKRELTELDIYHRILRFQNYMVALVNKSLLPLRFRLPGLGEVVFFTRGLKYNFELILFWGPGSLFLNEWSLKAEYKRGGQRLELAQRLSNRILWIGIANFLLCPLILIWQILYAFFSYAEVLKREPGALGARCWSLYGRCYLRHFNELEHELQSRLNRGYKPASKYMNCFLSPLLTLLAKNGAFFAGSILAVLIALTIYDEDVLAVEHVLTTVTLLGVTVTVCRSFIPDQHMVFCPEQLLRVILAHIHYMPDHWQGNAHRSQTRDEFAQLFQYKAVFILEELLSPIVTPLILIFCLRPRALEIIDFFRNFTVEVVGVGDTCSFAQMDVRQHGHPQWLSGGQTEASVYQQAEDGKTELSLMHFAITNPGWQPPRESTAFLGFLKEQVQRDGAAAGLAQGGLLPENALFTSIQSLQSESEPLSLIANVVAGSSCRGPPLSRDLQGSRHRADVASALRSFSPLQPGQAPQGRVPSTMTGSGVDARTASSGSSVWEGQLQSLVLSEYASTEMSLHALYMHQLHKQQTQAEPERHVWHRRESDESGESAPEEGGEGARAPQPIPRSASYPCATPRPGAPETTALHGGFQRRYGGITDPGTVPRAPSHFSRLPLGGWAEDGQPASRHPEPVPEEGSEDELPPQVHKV
Nature of the experiment: co-IP; PC12 whole-cell lysate (1 ug/uL, RIPA buffer) on antibody bound to Protein A/G PLUS-Agarose, 6 h at 4 °C, washed with RIPA, western blot; cells control or OGD 6 h / reoxygenation 6 h, with or without blebbistatin or cytochalasin D (1 uM); wild-type and NMMHC IIA knockout cells.

Experiment [3] deals with T2, autophagy-related gene 9A (ATG9A), endogenous in PC12 cells (rat (endogenous in PC12)). In words: proximity ligation; Duolink PLA kit (Sigma-Aldrich) in PC12 cells, primary antibodies to ATG9A and NMMHC IIA; control and OGD/R.

These are yes or no findings as the source states them, for the method shown. In cells and extracts the contact can be indirect. Some entries that bind do so weakly or less than the wild type.

Take “HA-tagged NMMHC IIA tail domain (aa. 842-1921) (from UniProt P35579 842-1921) (domain or fragment)”: the binding result in experiment [1] is “binds”.

For the substance “non-muscle myosin heavy-chain IIA (NMMHC IIA), endogenous in PC12 cells (from UniProt Q62812 1-1961)”, the binding entry in experiment [2] and in experiment [3] was “binds” in each case.
